Experimental data as given in PMC12819664.

Chains of the proteins cited; added tags and fusions are not shown. Residues count along the entry.
UniProt O43895, residues 22-649: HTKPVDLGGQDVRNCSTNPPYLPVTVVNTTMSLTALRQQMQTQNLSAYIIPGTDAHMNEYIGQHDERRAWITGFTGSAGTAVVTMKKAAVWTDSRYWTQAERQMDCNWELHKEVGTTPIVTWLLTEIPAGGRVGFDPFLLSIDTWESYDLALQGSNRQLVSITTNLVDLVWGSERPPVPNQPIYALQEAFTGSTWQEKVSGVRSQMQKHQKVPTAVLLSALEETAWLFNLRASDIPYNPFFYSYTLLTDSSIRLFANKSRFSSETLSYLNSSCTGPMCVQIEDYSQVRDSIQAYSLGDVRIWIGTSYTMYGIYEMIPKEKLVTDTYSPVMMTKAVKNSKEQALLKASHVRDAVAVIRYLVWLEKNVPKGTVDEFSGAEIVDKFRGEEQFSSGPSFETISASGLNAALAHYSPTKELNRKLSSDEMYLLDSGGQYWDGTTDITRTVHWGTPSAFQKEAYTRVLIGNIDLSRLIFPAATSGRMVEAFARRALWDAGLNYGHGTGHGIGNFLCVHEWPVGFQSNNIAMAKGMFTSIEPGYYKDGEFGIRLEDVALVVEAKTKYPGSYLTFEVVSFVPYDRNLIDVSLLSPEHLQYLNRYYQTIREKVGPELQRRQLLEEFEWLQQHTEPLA

Biological target: HA-tagged X-prolyl aminopeptidase 2 (XPNPEP2) (UniProt O43895)
Test: affinity purification with mass spectrometry; immunoprecipitates enriched with HA-tagged XPNPEP2, analysed by liquid chromatography-tandem mass spectrometry; cells not given

B1: SLC25A6 (protein, UniProt P12236 1-298)
chain: MTEQAISFAKDFLAGGIAAAISKTAVAPIERVKLLLQVQHASKQIAADKQYKGIVDCIVRIPKEQGVLSFWRGNLANVIRYFPTQALNFAFKDKYKQIFLGGVDKHTQFWRYFAGNLASGGAAGATSLCFVYPLDFARTRLAADVGKSGTEREFRGLGDCLVKITKSDGIRGLYQGFSVSVQGIIIYRAAYFGVYDTAKGMLPDPKNTHIVVSWMIAQTVTAVAGVVSYPFDTVRRRMMMQSGRKGADIMYTGTVDCWRKIFRDEGGKAFFKGAWSNVLRGMGGAFVLVLYDELKKVI
binding: binds

No constants are given. Whether binding was seen depends on the method and setting. In cells and extracts the contact can be indirect. Here binding means that the protein was enriched with, or labelled near, the bait; the list need not be complete.
